Here are results for 3 molecules from PMC10449633 (Nature Chemical Biology, 2023).

Sequences of proteins named here, by UniProt entry; tags and fusion partners are left off.
UniProt P61619, whole entry: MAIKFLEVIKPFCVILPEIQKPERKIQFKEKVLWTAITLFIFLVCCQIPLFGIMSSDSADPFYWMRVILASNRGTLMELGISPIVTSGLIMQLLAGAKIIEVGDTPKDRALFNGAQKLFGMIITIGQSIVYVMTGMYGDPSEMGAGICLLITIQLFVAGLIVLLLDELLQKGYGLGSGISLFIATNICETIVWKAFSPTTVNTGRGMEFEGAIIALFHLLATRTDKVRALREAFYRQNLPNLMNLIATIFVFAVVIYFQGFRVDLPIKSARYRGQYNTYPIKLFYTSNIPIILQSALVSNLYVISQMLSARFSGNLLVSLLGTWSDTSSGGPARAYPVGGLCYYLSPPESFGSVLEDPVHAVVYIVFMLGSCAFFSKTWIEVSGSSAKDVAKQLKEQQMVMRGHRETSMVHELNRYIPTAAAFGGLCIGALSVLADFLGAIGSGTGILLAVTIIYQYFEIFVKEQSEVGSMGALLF

One experiment deals with T1, Sec61 (Homo sapiens, UniProt P61619).
T1 construct: endogenous in cells
Type of experiment: cell-based.

Experiment [1] relates to collagen antibody-induced arthritis in BALB/c mice. Nature of the experiment: Anticollagen antibody-induced arthritis model, clinical scores. It counts as in vivo, mouse. As to conditions: individual mice.

Molecules are shown by their SMILES. Where “and” joins values, the source holds several entries; their conditions need not be identical. Equal entries are not always repeated. Where two headings read alike, the source gives them in different places. This continues a long series; more values of the same kind are listed elsewhere. Numbered stars: 1 amine (or outer) side, 2 acyl side, 3 side chain; on linkers, the order of the positions; unused ones are H or OH. Square brackets hold non-standard residues; d marks the D form. Peptide text beside a SMILES is read from it. NMeTrp(1-(4-Br-benzyl)) = CN[C@@H](Cc1cn(Cc2ccc(Br)cc2)c2ccccc12)C(=O)O; X3 = CCn1cc(C[C@@H](C(=O)[*:2])N(C)[*:1])c2ccccc21; Butanoyl(2R-oxy,4-CN) = N#CCC[C@@H](O)C(=O)O; Abu(4,4,4-F3) = N[C@@H](CC(F)(F)F)C(=O)O; NMeL = CN[C@@H](CC(C)C)C(=O)O; NMeA = CN[C@@H](C)C(=O)O

As to `CC(C)C[C@@H]1NC(=O)[C@H](Cc2cn(Cc3ccc(Br)cc3)c3ccccc23)N(C)C(=O)[C@H](CC(F)(F)F)NC(=O)[C@H](CC(C)C)N(C)C(=O)[C@H](CC(F)(F)F)NC(=O)[C@@H](CCC#N)OC(=O)[C@H](C)N(C)C1=O` [KZR-0508445] (cyclo(L[NMeA][Butanoyl(2R-oxy,4-CN)][Abu(4,4,4-F3)][NMeL][Abu(4,4,4-F3)][NMeTrp(1-(4-Br-benzyl))])), the “GLuc reporter raw signal (replicates)” value is 2805900 and 2941000 and 2889300 at Sec61 (HER3, Concentration 1.6); 2693200 at Sec61 (HER3, Concentration 8); 2677000 and 2450100 and 2546300 at Sec61 (IL2, Concentration 1.6); 1024000 and 1048400 and 1028000 at Sec61 (PD1, Concentration 1.6); 9456300 and 9631100 and 9495900 on Sec61 (Prolactin, Concentration 1.6); 9284600 and 9316800 and 9151200 at Sec61 (Prolactin, Concentration 8). Moreover, the “GLuc reporter raw signal (replicates)” value is 181080 and 186140 and 191280 at Sec61 (TNFa, Concentration 1.6); 176140 at Sec61 (TNFa, Concentration 8).

Consider `CC(C)C[C@@H]1NC(=O)[C@H](Cc2cn(Cc3ccc(Br)cc3)c3ccccc23)N(C)C(=O)[C@H](CC(F)(F)F)NC(=O)[C@H](CC(C)C)N(C)C(=O)[C@H](CC(F)(F)F)NC(=O)[C@@H](CCC#N)OC(=O)[C@H](C)N(C)C1=O` [KZR-508445] (cyclo(L[NMeA][Butanoyl(2R-oxy,4-CN)][Abu(4,4,4-F3)][NMeL][Abu(4,4,4-F3)][NMeTrp(1-(4-Br-benzyl))])), for which the Clinical score in experiment [1] (2.5 mg/kg IV QODx3, day 4) was 1 (6×) and 2 (4×); in experiment [1] (2.5 mg/kg IV QODx3, day 5) it was 3 (3×) and 2 (2×) and 4 (5×); in experiment [1] (2.5 mg/kg IV QODx3, day 6) it was 4 (3×) and 6 (4×) and 3 and 7 (2×); in experiment [1] (2.5 mg/kg IV QODx3, day 7), 7 (3×) and 5 and 4 and 9 (2×) and 6 (2×) and 10; in experiment [1] (2.5 mg/kg IV QODx3, day 10), 10 and 7 (3×) and 9 (2×) and 5 and 11 (2×) and 12; in experiment [1] (2.5 mg/kg IV QODx3, day 11), 11 (3×) and 7 (2×) and 10 and 5 and 12 and 9 and 8. Also, the Clinical score in experiment [1] (2.5 mg/kg IV QODx3, day 12) was 11 (4×) and 6 and 4 and 12 and 9 and 8 and 7; in experiment [1] (5 mg/kg IV QODx3, day 4), 3 and 2 (5×) and 1 (4×); in experiment [1] (5 mg/kg IV QODx3, day 5) it was 5 and 2 (5×) and 3 (4×); in experiment [1] (5 mg/kg IV QODx3, day 6), 6 (2×) and 3 (3×) and 5 (2×) and 4 (3×); in experiment [1] (5 mg/kg IV QODx3, day 7) it was 9 and 5 (3×) and 6 (3×) and 4 (2×) and 8; in experiment [1] (5 mg/kg IV QODx3, day 10), 12 and 6 and 9 (2×) and 5 (3×) and 8 and 7 and 11. The Clinical score in experiment [1] (5 mg/kg IV QODx3, day 11) is 12 and 5 (2×) and 9 (2×) and 4 (2×) and 8 (2×) and 11; in experiment [1] (5 mg/kg IV QODx3, day 12), 12 and 5 and 10 and 4 (3×) and 8 (3×) and 11; in experiment [1] (10 mg/kg IV QODx3, day 4), 1 (5×) and 2 (4×) and 3; in experiment [1] (10 mg/kg IV QODx3, day 5) it was 2 (6×) and 3 (4×); in experiment [1] (10 mg/kg IV QODx3, day 6) it was 4 (2×) and 5 (2×) and 3 (4×) and 6 and 2; in experiment [1] (10 mg/kg IV QODx3, day 7) it was 4 (3×) and 5 (4×) and 7 and 6 (2×). Moreover, the Clinical score in experiment [1] (10 mg/kg IV QODx3, day 10) was 5 (2×) and 8 (3×) and 6 and 7 (3×) and 4; in experiment [1] (10 mg/kg IV QODx3, day 11) it was 5 (3×) and 8 (3×) and 6 and 3 and 7 (2×); in experiment [1] (10 mg/kg IV QODx3, day 12) it was 5 (3×) and 8 and 9 (2×) and 6 and 3 and 7 (2×); in experiment [1] (20 mg/kg IV QODx3, day 4), 3; in experiment [1] (20 mg/kg IV QODx3, day 5), 2 (7×) and 1 (5×) and 3 (3×); in experiment [1] (20 mg/kg IV QODx3, day 6) it was 5 (2×) and 4 (2×) and 1 and 2 (4×) and 3 (5×) and 0. Besides, the Clinical score in experiment [1] (20 mg/kg IV QODx3, day 7) is 8 and 6 (3×) and 1 and 3 (2×) and 4 (4×) and 0 and 5 (2×) and 2; in experiment [1] (20 mg/kg IV QODx3, day 10), 7 (2×) and 1 (2×) and 4 (3×) and 5 (2×) and 0 and 3 and 8; in experiment [1] (20 mg/kg IV QODx3, day 11), 7 (2×) and 2 and 4 (4×) and 5 and 0 and 3 and 8 and 1; in experiment [1] (20 mg/kg IV QODx3, day 12), 7 (2×) and 1 (2×) and 3 (2×) and 4 (3×) and 5 and 0 and 8; in experiment [1] (20 mg/kg IV QW, day 4), 1 (4×) and 2 (5×) and 3; in experiment [1] (20 mg/kg IV QW, day 5), 1 (3×) and 3 and 2 (6×). Moreover, the Clinical score in experiment [1] (20 mg/kg IV QW, day 6) was 1 and 2 and 6 and 5 (3×) and 3 and 4 (3×); in experiment [1] (20 mg/kg IV QW, day 7) it was 1 and 3 and 7 and 6 (4×) and 4 and 5 (2×); in experiment [1] (20 mg/kg IV QW, day 10), 2 and 4 and 9 (3×) and 7 (2×) and 6 (2×) and 8; in experiment [1] (20 mg/kg IV QW, day 11), 0 and 4 and 8 (2×) and 6 (3×) and 7 (2×) and 5; in experiment [1] (20 mg/kg IV QW, day 12) it was 0 and 3 and 9 and 6 (3×) and 7 and 8 (2×) and 4.

For `CCn1cc(C[C@H]2C(=O)N[C@@H](CC(C)C)C(=O)N(C)[C@@H](C)C(=O)O[C@H](CCC#N)C(=O)N[C@@H](CC(F)(F)F)C(=O)N(C)[C@@H](CC(C)C)C(=O)N[C@@H](CC(F)(F)F)C(=O)N2C)c2ccccc21` [KZR-0509508] (cyclo(L[NMeA][Butanoyl(2R-oxy,4-CN)][Abu(4,4,4-F3)][NMeL][Abu(4,4,4-F3)][X3])), the “GLuc reporter raw signal (replicates)” value at Sec61 (HER3, Concentration 1.6) is 2847100 and 2861900 and 2946000; at Sec61 (HER3, Concentration 8) it was 2749300 and 2978800 and 2982800; on Sec61 (IL2, Concentration 1.6), 2678300 and 2698800 and 2606600; on Sec61 (PD1, Concentration 1.6), 1143400 and 1043200 and 1112200; at Sec61 (Prolactin, Concentration 1.6) it was 8721400 and 8252800 and 8499000; on Sec61 (TNFa, Concentration 1.6) it was 167830 and 162480 and 155660. The “GLuc reporter raw signal (replicates)” value at Sec61 (TNFa, Concentration 8) was 163990 and 157990.
